Paper PMC8528824
These are yes or no findings as the source states them, for the method shown. Binding seen in cells or lysates may run through a third protein. Some entries that bind do so weakly or less than the wild type.

Amino acid sequences for entries named in this document (tags omitted). Residues count along the entry.
UniProt Q16665: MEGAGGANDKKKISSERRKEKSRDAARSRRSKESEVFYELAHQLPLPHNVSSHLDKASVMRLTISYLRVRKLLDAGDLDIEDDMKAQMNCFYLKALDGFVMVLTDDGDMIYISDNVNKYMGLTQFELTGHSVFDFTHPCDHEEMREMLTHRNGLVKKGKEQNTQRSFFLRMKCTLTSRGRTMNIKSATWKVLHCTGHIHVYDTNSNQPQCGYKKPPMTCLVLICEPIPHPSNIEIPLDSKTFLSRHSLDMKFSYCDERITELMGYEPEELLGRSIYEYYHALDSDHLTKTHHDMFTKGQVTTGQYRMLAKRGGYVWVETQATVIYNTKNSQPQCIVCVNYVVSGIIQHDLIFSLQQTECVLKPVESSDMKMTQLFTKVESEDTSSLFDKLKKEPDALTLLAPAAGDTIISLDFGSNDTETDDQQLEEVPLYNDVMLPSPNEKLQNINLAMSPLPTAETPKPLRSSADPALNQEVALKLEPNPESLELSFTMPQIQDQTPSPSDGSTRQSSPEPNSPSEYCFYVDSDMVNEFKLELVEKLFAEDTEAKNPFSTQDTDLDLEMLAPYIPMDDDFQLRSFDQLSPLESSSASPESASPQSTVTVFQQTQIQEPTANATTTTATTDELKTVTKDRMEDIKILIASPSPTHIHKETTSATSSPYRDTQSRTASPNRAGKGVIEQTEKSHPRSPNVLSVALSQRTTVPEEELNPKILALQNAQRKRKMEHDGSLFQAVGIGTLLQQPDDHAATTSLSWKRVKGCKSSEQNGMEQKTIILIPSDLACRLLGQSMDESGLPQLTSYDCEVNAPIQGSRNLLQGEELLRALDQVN
UniProt P16066, residues 33-1061: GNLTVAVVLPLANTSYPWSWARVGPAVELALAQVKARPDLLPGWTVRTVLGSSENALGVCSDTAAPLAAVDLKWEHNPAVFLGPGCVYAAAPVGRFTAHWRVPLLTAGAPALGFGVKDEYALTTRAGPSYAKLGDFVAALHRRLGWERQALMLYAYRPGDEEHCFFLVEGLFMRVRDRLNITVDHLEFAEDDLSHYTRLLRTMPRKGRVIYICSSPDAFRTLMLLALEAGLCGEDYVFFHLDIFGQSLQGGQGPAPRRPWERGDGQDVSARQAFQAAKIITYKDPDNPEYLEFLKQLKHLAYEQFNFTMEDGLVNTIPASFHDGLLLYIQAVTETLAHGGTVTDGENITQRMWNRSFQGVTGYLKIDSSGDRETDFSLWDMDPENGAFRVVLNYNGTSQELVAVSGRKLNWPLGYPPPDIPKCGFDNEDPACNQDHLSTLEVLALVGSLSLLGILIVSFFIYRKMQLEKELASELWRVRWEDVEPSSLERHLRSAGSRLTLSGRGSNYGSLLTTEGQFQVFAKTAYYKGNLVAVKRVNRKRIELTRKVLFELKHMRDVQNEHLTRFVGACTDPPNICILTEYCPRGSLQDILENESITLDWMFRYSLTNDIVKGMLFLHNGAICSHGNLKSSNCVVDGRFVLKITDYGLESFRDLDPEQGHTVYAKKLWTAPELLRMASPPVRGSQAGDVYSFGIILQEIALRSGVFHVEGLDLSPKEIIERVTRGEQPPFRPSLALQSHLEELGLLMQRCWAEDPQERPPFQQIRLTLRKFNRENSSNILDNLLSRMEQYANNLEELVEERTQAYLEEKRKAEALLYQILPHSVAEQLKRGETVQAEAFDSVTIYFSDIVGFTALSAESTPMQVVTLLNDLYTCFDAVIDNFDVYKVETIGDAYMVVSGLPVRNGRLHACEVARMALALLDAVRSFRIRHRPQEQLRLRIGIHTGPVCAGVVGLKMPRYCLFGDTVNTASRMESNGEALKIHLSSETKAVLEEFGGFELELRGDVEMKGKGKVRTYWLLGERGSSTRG

Columns and labels:
[1] = molecular target: Hypoxia-inducible factor-1 alpha (human (endogenous in AGS)) (UniProt Q16665); experiment: co-IP; immunoprecipitation of cell lysates (AGS) with protein A/G-agarose beads, anti-NPRA or anti-HIF-1α antibody; western blot detection
[2] = molecular target: Natriuretic peptide receptor A (human (endogenous in AGS)) (UniProt P16066); experiment: as above

binding [1]	binding [2]	Substance
binds	–	Natriuretic peptide receptor A (from UniProt P16066 33-1061)
–	binds	Hypoxia-inducible factor-1 alpha (from UniProt Q16665 1-826)
